In article PMC11705485:
No constants are given. Whether binding was seen depends on the method and setting. Binding seen in cells or lysates may run through a third protein. Some entries that bind do so weakly or less than the wild type.

Protein sequences, listed by entry. Tags and fused reporters are not part of them. Residues count along the entry.
UniProt B5DFG1, residues 78-580: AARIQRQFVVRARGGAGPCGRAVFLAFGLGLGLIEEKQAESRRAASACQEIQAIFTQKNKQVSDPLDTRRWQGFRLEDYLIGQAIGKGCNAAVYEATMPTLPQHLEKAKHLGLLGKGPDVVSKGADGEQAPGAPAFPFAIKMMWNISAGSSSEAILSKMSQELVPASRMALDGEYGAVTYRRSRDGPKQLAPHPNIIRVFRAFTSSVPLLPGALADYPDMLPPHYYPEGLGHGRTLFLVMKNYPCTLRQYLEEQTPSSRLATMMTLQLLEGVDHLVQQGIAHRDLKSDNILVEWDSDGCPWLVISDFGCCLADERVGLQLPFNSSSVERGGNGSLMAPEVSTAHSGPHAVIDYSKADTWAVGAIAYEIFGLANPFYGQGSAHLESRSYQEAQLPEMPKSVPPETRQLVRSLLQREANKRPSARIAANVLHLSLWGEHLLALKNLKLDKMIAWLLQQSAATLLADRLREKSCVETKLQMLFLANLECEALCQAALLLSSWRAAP

Molecular target: PTEN‐induced kinase 1 (PINK1), endogenous in neonatal rat cardiomyocytes (rat (endogenous in NRCM)) (UniProt B5DFG1)
Assay: co-IP; endogenous co-IP of PINK1 and Prdx2 in NRCM

B1: peroxiredoxin‐2 (Prdx2), endogenous in neonatal rat cardiomyocytes (protein, UniProt P35704 1-198)
chain: MASGNAHIGKPAPDFTGTAVVDGAFKEIKLSDYRGKYVVLFFYPLDFTFVCPTEIIAFSDHAEDFRKLGCEVLGVSVDSQFTHLAWINTPRKEGGLGPLNIPLLADVTKSLSQNYGVLKNDEGIAYRGLFIIDAKGVLRQITVNDLPVGRSVDEALRLVQAFQYTDEHGEVCPAGWKPGSDTIKPNVDDSKEYFSKHN
In the case of B1, the binding is reported as “binds”.
